{"sequences": {"note": "The chains behind the UniProt entries cited, without tags or fusion partners. Residues count along the entry.", "UniProt G7CES0, 29-471": "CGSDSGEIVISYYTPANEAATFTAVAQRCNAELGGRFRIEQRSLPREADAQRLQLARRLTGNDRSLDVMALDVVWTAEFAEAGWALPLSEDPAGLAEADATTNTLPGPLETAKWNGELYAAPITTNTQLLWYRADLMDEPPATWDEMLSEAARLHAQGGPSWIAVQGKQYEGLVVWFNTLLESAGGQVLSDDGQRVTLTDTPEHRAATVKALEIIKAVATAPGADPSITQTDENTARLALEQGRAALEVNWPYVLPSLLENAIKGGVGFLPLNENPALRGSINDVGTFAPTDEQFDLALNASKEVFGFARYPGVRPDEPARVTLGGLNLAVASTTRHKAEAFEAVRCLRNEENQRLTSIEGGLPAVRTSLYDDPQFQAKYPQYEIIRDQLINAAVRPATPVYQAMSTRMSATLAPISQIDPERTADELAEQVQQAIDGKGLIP"}, "source": "paper PMC9579956", "about": "(RSC Medicinal Chemistry, 2022)", "target": "Mycobacterium thermoresistible (Mtr) LpqY (Mycolicibacterium thermoresistibile, UniProt G7CES0)", "format": "binding", "conditions": "single dose MST screen against LpqY", "data": [{"compound": "CN1CCCC1CCO[C@](C)(c1ccccc1)c1ccc(Cl)cc1", "note": "(stereo partly shown) [MMV637229]", "values": [{"measurement": "Pathogen Box screen signal/noise ratio", "value": 3.2}]}]}
